These results are taken from the supplement of paper PMC12819154, “High-throughput peptide-centric local stability assay extends protein–ligand identification to membrane proteins, tissues and bacteria” (Nature Structural & Molecular Biology, 2025).

By UniProt entry, the sequences of proteins in these tests, tags left out. Where a name states a change or a piece, a line headed by the entry shows the natural chain unless it says otherwise.
UniProt P37344, whole entry: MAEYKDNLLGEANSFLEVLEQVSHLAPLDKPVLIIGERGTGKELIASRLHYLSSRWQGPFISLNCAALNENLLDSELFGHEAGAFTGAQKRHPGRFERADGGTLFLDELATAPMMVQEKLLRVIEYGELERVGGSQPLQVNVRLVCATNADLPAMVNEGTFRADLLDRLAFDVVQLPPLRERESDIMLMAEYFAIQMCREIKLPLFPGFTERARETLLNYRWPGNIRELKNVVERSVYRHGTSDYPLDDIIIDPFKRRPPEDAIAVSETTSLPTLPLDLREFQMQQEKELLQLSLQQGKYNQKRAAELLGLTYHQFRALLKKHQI
UniProt P37351: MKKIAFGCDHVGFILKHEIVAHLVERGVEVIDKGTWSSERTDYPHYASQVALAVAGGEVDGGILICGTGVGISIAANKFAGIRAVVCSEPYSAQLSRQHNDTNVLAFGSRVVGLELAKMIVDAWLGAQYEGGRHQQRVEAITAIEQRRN
UniProt P39336: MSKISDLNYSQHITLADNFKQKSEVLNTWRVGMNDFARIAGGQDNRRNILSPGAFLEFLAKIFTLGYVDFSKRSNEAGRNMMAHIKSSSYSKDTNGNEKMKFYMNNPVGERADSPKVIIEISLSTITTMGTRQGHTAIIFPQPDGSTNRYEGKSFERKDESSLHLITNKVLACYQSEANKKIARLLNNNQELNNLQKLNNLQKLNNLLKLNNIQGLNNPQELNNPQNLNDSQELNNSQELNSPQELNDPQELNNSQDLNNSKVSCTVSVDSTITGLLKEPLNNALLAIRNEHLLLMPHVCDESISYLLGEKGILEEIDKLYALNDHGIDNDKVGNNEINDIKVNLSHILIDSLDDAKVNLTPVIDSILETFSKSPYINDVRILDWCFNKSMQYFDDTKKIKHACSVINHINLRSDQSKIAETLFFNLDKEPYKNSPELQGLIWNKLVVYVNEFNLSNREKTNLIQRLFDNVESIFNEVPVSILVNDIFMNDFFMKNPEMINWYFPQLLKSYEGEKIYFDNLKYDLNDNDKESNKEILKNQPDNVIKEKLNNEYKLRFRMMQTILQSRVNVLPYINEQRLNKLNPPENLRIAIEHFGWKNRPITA
UniProt P37623: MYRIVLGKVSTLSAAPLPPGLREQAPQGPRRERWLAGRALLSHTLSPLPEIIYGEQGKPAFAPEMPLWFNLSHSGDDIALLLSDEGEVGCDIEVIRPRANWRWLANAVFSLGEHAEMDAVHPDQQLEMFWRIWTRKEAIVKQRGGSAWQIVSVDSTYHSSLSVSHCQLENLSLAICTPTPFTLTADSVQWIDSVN
UniProt P39364: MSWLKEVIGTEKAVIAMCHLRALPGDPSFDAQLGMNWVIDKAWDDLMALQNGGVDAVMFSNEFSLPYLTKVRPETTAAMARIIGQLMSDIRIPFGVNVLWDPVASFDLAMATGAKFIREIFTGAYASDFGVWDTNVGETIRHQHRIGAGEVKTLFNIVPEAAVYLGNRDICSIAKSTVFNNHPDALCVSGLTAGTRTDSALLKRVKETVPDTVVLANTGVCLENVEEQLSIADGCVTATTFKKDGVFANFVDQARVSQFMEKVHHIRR
UniProt P42604: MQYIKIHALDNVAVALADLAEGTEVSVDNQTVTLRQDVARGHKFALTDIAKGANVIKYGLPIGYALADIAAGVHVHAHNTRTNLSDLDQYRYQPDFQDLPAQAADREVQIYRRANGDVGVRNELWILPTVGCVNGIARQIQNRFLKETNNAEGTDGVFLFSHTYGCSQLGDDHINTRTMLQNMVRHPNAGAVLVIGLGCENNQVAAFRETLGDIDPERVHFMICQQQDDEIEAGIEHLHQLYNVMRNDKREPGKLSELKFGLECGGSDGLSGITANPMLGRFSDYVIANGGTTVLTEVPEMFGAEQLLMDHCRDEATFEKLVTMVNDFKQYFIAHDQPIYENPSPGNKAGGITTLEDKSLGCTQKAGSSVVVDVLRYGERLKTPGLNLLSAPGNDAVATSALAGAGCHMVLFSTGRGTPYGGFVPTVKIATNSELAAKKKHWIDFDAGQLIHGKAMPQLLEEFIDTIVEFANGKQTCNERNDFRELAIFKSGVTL
UniProt P37049: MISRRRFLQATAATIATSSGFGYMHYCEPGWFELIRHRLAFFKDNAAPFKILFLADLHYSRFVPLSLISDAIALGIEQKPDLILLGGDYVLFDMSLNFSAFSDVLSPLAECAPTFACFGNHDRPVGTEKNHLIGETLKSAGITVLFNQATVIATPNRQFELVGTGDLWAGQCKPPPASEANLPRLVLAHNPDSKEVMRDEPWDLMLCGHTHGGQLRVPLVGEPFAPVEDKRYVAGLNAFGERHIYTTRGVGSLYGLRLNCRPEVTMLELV
UniProt P37773: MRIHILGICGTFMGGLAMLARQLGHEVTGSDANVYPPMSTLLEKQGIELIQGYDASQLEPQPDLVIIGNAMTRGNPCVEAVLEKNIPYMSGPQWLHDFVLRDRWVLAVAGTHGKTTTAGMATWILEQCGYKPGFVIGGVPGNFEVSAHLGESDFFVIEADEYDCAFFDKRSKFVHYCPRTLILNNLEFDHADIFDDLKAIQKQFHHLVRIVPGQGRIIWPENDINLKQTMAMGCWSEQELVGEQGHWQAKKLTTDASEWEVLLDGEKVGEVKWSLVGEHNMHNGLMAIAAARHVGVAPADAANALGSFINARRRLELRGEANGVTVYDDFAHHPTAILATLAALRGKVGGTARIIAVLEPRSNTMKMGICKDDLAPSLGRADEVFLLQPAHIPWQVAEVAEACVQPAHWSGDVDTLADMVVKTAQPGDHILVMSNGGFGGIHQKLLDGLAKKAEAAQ
UniProt P39346: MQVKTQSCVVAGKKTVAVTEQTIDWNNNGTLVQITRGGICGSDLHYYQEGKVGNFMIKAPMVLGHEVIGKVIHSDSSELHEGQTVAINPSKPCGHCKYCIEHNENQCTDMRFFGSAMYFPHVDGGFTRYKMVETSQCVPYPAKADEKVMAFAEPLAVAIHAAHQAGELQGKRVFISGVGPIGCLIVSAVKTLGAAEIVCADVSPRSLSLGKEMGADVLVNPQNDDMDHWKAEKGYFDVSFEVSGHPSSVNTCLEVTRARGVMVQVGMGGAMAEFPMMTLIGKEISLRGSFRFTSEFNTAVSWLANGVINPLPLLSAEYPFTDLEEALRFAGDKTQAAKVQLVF
UniProt P39208: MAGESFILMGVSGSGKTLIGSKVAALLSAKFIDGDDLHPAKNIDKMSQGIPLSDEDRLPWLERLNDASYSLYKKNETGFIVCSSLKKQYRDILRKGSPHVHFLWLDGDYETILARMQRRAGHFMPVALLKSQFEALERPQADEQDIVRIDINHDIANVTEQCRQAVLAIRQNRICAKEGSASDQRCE
UniProt P39176: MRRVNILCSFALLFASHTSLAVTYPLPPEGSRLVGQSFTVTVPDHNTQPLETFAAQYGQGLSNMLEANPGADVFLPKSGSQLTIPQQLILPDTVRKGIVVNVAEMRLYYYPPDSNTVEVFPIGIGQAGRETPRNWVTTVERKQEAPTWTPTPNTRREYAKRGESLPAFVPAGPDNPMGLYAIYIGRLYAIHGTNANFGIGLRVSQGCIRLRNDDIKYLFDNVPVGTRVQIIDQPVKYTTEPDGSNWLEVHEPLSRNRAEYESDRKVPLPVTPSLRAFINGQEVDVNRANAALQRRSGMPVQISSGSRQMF
UniProt P39360: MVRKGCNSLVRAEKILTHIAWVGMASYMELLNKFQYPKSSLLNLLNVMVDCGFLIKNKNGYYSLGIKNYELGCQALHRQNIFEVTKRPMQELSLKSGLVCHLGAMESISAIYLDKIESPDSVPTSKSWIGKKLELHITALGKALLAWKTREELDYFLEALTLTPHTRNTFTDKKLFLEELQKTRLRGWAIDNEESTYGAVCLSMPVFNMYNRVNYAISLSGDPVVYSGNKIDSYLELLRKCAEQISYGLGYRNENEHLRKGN
UniProt P37650: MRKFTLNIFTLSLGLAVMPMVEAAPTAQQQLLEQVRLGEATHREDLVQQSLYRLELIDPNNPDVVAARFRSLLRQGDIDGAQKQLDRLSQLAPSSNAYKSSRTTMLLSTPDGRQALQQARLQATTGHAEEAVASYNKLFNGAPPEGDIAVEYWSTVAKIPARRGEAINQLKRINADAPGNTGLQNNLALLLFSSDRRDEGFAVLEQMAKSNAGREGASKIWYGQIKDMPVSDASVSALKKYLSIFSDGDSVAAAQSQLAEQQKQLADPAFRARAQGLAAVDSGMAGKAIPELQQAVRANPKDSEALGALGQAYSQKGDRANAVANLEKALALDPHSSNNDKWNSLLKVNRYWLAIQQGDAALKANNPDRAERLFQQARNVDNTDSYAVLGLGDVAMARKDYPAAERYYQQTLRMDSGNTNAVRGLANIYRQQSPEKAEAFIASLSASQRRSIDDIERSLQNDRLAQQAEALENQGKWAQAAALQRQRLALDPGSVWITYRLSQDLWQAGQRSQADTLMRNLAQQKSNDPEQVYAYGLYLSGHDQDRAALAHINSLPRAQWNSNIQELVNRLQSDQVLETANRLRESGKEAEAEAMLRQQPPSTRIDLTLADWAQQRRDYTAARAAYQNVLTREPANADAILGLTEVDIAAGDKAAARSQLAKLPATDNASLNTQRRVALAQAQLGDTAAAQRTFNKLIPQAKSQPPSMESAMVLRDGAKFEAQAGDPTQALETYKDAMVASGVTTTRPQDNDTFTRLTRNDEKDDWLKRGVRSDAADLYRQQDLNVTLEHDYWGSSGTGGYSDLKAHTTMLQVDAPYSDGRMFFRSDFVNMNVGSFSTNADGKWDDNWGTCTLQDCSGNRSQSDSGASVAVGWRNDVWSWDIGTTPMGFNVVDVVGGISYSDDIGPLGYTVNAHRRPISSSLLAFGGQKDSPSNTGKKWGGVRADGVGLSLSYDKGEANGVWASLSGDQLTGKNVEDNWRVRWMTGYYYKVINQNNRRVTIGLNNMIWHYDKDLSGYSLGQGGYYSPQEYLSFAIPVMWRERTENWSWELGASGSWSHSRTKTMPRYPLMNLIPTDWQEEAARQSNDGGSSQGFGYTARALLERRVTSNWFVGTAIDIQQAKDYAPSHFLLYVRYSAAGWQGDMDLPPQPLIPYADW
UniProt P37903: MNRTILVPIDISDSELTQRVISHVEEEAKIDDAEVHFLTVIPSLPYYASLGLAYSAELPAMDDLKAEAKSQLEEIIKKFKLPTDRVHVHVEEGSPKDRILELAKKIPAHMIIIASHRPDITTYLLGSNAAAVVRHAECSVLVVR
UniProt P42909: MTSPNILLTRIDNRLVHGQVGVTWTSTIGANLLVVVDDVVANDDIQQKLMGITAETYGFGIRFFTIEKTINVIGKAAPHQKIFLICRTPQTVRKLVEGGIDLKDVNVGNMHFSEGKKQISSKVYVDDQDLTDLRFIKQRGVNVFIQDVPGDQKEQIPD
UniProt P39830: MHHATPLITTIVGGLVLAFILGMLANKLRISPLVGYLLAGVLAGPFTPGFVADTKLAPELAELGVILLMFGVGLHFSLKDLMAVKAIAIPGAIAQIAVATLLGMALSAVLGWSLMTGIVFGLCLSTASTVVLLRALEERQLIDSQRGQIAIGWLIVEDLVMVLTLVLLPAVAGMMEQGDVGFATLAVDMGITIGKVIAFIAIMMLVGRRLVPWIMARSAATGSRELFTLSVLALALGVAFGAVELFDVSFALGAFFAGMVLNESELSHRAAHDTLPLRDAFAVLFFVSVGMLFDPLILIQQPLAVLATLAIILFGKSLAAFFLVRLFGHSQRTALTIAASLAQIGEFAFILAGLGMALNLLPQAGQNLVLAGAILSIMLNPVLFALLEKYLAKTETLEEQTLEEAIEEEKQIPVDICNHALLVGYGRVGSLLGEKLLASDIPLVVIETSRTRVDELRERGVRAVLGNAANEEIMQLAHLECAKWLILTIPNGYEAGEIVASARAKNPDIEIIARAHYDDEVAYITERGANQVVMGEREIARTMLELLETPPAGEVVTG
UniProt P43672: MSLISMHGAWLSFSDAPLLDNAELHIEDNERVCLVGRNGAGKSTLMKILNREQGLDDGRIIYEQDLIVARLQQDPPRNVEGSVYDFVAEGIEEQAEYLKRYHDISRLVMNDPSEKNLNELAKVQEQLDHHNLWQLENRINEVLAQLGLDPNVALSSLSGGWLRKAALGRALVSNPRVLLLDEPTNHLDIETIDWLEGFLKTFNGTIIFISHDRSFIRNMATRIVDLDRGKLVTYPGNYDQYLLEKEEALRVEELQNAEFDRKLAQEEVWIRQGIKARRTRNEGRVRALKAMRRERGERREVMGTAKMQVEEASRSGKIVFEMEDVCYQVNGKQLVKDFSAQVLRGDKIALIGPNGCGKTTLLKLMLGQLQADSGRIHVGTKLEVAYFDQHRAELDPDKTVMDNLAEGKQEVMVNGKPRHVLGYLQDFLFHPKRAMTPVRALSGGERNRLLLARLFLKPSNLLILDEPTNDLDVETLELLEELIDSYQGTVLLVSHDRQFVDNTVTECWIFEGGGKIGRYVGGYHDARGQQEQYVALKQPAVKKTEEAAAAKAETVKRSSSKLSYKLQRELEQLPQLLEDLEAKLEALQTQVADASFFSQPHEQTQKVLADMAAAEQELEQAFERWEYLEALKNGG

The other results are listed elsewhere or left out. Small differences around the control level are noise.

Compound in this assay: CC1(C)S[C@@H]2[C@H](NC(=O)[C@H](N)c3ccccc3)C(=O)N2[C@H]1C(=O)O [ampicillin]
The assay can be described thus: log2 fold change of tryptic peptide abundance, ligand vs vehicle (limited proteolysis) (log2 ratio); higher = more trypsin-susceptible (destabilized). As to conditions: ligand concentration: 10 uM; sample: E. coli crude lysate.
As to “UniProt P39353 (peptide sequence: NGWENKQER, peptide start residue: 149)”, the log2 fold change was -0.227.

“UniProt P37344 (peptide sequence: ELLQLSLQQGK, peptide start residue: 289)”: the log2 fold change is -0.38.

With “UniProt P37351 (peptide sequence: HEIVAHLVER, peptide start residue: 17)”, the log2 fold change amounted to 0.496. To “UniProt P45524 (peptide sequence: IHGYADAIDYYRQCSAMPMLNR, peptide start residue: 246)” belongs 0.841.

Regarding “UniProt P39315 (peptide sequence: VISEAGHEGK, peptide start residue: 181)”, the log2 fold change is -0.384. Regarding “UniProt P39336 (peptide sequence: QGHTAIIFPQPDGSTNRYEGK, peptide start residue: 133)”, the log2 fold change was -0.245. To “UniProt P38134 (peptide sequence: TIAELNLR, peptide start residue: 103)” belongs 0.16; to “UniProt P37025 (peptide sequence: EQIIHWR, peptide start residue: 19)”, -0.857. To “UniProt P39407 (peptide sequence: DIQQFIEKPPGKLR, peptide start residue: 248)” belongs -0.54; to “UniProt P37671 (peptide sequence: KENEMAQEK, peptide start residue: 9)”, 0.307; to “UniProt P37195 (peptide sequence: CLGKVPVTFVPR, peptide start residue: 80)”, -0.277. Regarding “UniProt P37623 (peptide sequence: EQAPQGPR, peptide start residue: 23)”, the log2 fold change was -0.0382.

For “UniProt P39364 (peptide sequence: DGVFANFVDQAR, peptide start residue: 244)”, the log2 fold change is -0.138.

Consider “UniProt P37095 (peptide sequence: LMIIDWVR, peptide start residue: 104)”, for which the log2 fold change is -0.425. For the target “UniProt P42604 (peptide sequence: AGSSVVVDVLR, peptide start residue: 366)”, the log2 fold change is -0.844. For the target “UniProt P33667 (peptide sequence: GEWAEVAEWVK, peptide start residue: 352)”, the log2 fold change was determined as 0.562.

For the target “UniProt P37049 (peptide sequence: NHLIGETLK, peptide start residue: 130)”, the log2 fold change is -0.00135. To “UniProt P37773 (peptide sequence: KLTTDASEWEVLLDGEK, peptide start residue: 251)” belongs -0.304. Regarding “UniProt P39346 (peptide sequence: TQSCVVAGK, peptide start residue: 5)”, the log2 fold change is -0.294. To “UniProt P37005 (peptide sequence: AENIGAAAR, peptide start residue: 13)” belongs 0.376; to “UniProt P39208 (peptide sequence: RAGHFMPVALLK, peptide start residue: 119)”, -0.321. To “UniProt P39176 (peptide sequence: KQEAPTWTPTPNTRR, peptide start residue: 142)” belongs -0.389; to “UniProt P39173 (peptide sequence: KLDELDLIVVDHPQVK, peptide start residue: 22)”, 0.435; to “UniProt P37639 (peptide sequence: IASELLMSPSLLKK, peptide start residue: 164)”, -0.466. To “UniProt P39360 (peptide sequence: QNIFEVTKRPMQELSLK, peptide start residue: 79)” belongs -0.678. In the case of “UniProt P37650 (peptide sequence: AQGLAAVDSGMAGK, peptide start residue: 274)”, the log2 fold change came to 0.44. To “UniProt P37903 (peptide sequence: VISHVEEEAK, peptide start residue: 20)” belongs 0.113; to “UniProt P42909 (peptide sequence: DVNVGNMHFSEGKK, peptide start residue: 104)”, -0.376.

As for “UniProt P39830 (peptide sequence: GANQVVMGER, peptide start residue: 528)”, the log2 fold change is 0.1. To “UniProt P39831 (peptide sequence: FKGDDGKAEK, peptide start residue: 190)” belongs -0.156; to “UniProt P43672 (peptide sequence: IHVGTKLEVAYFDQHR, peptide start residue: 376)”, -0.948.
